Experimental data published in paper PMC3531522, “Nasal Colonisation by Staphylococcus aureus Depends upon Clumping Factor B Binding to the Squamous Epithelial Cell Envelope Protein Loricrin” (PLoS Pathogens, 2012).
No constants are given. Whether binding was seen depends on the method and setting. Some binding calls cover weakened binding; strength is not graded here. Where a sequence is shown, tags or fusion partners need not be part of it.

Sequences of proteins named here, by UniProt entry; tags and fusion partners are left off. A change or cut given only in a name is not applied to a line headed by its entry.
UniProt O86476: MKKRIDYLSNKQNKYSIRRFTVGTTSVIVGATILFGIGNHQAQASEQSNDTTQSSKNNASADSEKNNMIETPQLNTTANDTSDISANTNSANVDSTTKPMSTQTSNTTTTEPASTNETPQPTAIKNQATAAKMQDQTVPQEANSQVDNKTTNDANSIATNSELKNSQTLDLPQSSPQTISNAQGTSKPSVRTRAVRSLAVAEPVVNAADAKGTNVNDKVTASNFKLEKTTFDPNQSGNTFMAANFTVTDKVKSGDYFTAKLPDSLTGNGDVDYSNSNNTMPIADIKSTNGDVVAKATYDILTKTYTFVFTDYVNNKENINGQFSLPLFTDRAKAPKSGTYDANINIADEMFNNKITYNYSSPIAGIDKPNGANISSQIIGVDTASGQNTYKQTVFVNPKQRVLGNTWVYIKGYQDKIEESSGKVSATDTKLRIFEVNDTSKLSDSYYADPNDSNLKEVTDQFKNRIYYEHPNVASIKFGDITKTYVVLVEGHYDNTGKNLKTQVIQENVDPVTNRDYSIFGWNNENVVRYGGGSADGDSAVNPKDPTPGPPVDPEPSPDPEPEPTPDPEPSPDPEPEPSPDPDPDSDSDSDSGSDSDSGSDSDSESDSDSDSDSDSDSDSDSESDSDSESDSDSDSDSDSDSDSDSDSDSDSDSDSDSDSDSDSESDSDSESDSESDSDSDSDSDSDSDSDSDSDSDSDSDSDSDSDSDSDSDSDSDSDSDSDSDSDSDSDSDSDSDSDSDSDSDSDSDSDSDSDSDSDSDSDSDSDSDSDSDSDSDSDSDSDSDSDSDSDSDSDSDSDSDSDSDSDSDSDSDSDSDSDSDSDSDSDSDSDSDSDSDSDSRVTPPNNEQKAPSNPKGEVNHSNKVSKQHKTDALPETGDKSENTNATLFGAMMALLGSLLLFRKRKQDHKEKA

What was measured:
[1] = biological target: T1, GST-human loricrin_(1–315) (human) (UniProt P23490); test: bacterial adherence to immobilised protein (crystal violet); GST-tagged protein (1 µM or 0.5 µM) coated on microtitre wells, blocked with BSA; bacteria (OD600 = 1.0 in PBS) 2 h at 37°C; absorbance at 570 nm; only the target purified
T1 sequence: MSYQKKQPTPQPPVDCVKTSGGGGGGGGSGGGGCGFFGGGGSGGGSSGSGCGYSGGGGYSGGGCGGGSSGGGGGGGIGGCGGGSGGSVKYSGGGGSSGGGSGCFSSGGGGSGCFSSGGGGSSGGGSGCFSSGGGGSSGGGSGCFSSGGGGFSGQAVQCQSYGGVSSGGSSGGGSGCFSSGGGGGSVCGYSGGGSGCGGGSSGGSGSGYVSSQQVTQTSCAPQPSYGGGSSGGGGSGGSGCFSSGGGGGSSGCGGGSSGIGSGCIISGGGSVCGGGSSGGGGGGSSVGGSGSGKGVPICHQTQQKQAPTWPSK

[2] = biological target: T2, GST-murine K10_(454–570) (murine) (UniProt P02535); test: as above
T2 sequence: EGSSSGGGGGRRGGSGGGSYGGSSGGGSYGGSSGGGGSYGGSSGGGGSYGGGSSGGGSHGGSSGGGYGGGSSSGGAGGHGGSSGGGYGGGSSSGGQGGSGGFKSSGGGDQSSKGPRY

[3] = biological target: T3, GST-murine loricrin_(1–480) (murine) (UniProt P18165); test: as above
T3 sequence: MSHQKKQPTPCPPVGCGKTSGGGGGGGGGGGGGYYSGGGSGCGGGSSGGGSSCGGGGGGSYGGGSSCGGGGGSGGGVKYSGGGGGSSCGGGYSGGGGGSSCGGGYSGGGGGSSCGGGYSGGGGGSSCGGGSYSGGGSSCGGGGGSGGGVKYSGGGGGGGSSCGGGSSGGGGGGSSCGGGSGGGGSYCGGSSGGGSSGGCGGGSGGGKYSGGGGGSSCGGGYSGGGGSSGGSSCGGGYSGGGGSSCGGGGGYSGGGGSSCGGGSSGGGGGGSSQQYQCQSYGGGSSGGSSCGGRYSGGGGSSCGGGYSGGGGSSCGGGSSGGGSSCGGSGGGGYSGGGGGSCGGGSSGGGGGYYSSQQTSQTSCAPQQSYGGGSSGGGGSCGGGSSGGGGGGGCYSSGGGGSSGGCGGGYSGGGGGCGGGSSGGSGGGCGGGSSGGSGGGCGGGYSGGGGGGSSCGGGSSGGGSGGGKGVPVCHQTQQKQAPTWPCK

[4] = biological target: T1, GST-human loricrin_(1–315) (human); test: bacterial adherence to immobilised protein (crystal violet); S. aureus Newman (1×10^8 CFU) pre-incubated with GST or HK10 (2 µM) in PBS 30 min at room temperature, then 90 min at room temperature on loricrin-coated wells (0.5 µM); only the target purified
[5] = biological target: T1, GST-human loricrin_(1–315) (human); test: ELISA; loricrin-coated wells (0.5 µM); rClfB N23_(201–542) (3 µM) pre-incubated with GST, HK10 or L2v (14 µM) in PBS 1 h at room temperature, then 1 h at 37°C on the wells; detected with HRP-conjugated anti-His antibodies; both purified

Row | Substance | binding [1] | binding [2] | binding [3] | binding [4] | binding [5]
1 | Clumping factor B (ClfB) expressed on the surface of L. lactis (from UniProt O86476 45-877) | binds | binds | binds |  | 
2 | Clumping factor B (ClfB) on the surface of S. aureus Newman (from UniProt O86476 45-877) | binds | binds | binds | binds | 
3 | Recombinant ClfB N2N3 (rClfB_(201–542)) (from UniProt O86476 201-542) (domain or fragment) |  |  |  |  | binds
